PubChem BioAssay AID1508588 | Peter MacCallum Cancer Centre | 2020
Purpose: 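Which gene losses make BRAF-mutant melanoma cells more responsive to vemurafenib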 (primary screen). System: human WM266.4 melanoma cells (BRAF V600 mutant). Reagents: siRNA pool against human genes, 40 nM. Duration: 96 h from transfection to read-out. Treatment: vemurafenib 300 nM (about IC25), added 48 h after transfection, for 48 h; comparison arm got DMSO vehicle only. Read-out: 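Ratios to non-targeting siRNA for cell gain, counted as DAPI nuclei after minus before drug and averaged over two replicates, and for absorbance-read medium lactate per cell; both binned into fold-change classes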. Reading the numbers: cell gain with vemurafenib: higher = more cell gain than with non-targeting siRNA; lactate per cell with vemurafenib: higher = more lactate made per cell. Rule for the call: 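Enhancement is called by pairing each knock-down's vehicle-arm and drug-arm fold-change classes for viability or glycolysis; which class combinations qualify is not given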. Calls: active = enhances vemurafenib effect; inactive = no enhancement seen.
This is a random part of about 18,000 deposited reagents. Over the whole deposit, 790 (4.4%) were called active. 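Calls rest on a combination of fold-change classes in drug and vehicle arms, not all shown here.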

The first 3 entries, ahead of the listing:
gene | cell gain with vemurafenib | lactate per cell with vemurafenib | outcome
NAP1L5 (nucleosome assembly protein 1 like 5) | 0.67 | 1.44 | inactive
PANK4 (pantothenate kinase 4 (inactive)) | 0.37 | 1.27 | inactive
PCBP4 (poly(rC) binding protein 4) | 0.87 | 0.9 | inactive

Main list, from the first entry:
gene | cell gain with vemurafenib | lactate per cell with vemurafenib | outcome
NAP1L5 (nucleosome assembly protein 1 like 5) | 0.67 | 1.44 | inactive
PANK4 (pantothenate kinase 4 (inactive)) | 0.37 | 1.27 | inactive
PCBP4 (poly(rC) binding protein 4) | 0.87 | 0.9 | inactive
CPT2 (carnitine palmitoyltransferase 2) | 0.96 | 0.55 | inactive
PARP8 (poly(ADP-ribose) polymerase family member 8) | 0.95 | 0.62 | inactive
ELAPOR1 | 0.83 | 0.42 | inactive
ALKBH2 (alkB homolog 2, alpha-ketoglutarate dependent dioxygenase) | 0.37 | 1.63 | inactive
NFAT5 (nuclear factor of activated T cells 5) | 0.2 | 1.16 | inactive
SMARCC2 (SWI/SNF related BAF chromatin remodeling complex subunit C2) | 0.96 | 0.44 | inactive
IDO1 (indoleamine 2,3-dioxygenase 1) | 0.55 | 0.85 | inactive
TAF4B (TATA-box binding protein associated factor 4b) | 0.56 | 0.64 | inactive
ALOX5AP (arachidonate 5-lipoxygenase activating protein) | 1.19 | 0.62 | inactive
RASA1 (RAS p21 protein activator 1) | 0.25 | 1.35 | inactive
CFP (complement factor properdin) | 0.95 | 0.84 | inactive
SRGAP1 (SLIT-ROBO Rho GTPase activating protein 1) | 0.55 | 1.13 | inactive
ARHGAP36 (Rho GTPase activating protein 36) | 0.55 | 1.08 | inactive
ZNF426 (zinc finger protein 426) | 0.02 | 0.95 | inactive
DBF4 (DBF4-CDC7 kinase regulatory subunit) | 0.8 | 1 | inactive
CAPN12 (calpain 12) | 0.34 | 0.57 | inactive
HIF1A (hypoxia inducible factor 1 subunit alpha) | 0.93 | 0.5 | inactive
CARNMT1 (carnosine N-methyltransferase 1) | 0.4 | 1.02 | inactive
CA8 (carbonic anhydrase 8 (inactive)) | 0.86 | 1.11 | inactive
ANKRD20A2P (ankyrin repeat domain 20 family member A2, pseudogene) | 0.93 | 1.52 | inactive
ARL4C (ARF like GTPase 4C) | 0.94 | 0.96 | inactive
KLK12 (kallikrein related peptidase 12) | 0.6 | 0.62 | inactive
ERGIC3 (ERGIC and golgi 3) | 0.29 | 1.16 | inactive
THADA (THADA armadillo repeat containing) | 0.92 | 0.9 | inactive
CNGB1 (cyclic nucleotide gated channel subunit beta 1) | 0.86 | 0.8 | inactive
RASSF4 (Ras association domain family member 4) | 0.04 | 1.75 | inactive
DNAH2 (dynein axonemal heavy chain 2) | 0.58 | 0.97 | inactive
GRXCR2 (glutaredoxin and cysteine rich domain containing 2) | 0.92 | 0.82 | inactive
ULK2 (unc-51 like autophagy activating kinase 2) | 0.28 | 0.5 | inactive
CNTNAP1 (contactin associated protein 1) | 0.36 | 1.08 | inactive
WDR90 (WD repeat domain 90) | 0.92 | 0.88 | inactive
